Among all 360,000 compounds or so, about 2,400 (0.67%) were called active. The shares of active, inactive and inconclusive entries below differ from those in the screen.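 How the source made its calls: active means inhibition above about 55% (limit read from the data); inconclusive means no clear call, values can overlap the other calls; inactive means the rest.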
Experiment: LAMP-1 surface exposure blockers, TALL-104 cells – cell-based, flow cytometry, MLPCN library, primary screen (AID 651702)
Conditions: TALL-104 LAMP-1 surface exposure, cells stimulated with thapsigargin and PMA; at 10 µM, active compounds read high

| Structure (SMILES) | inhibition |
| --- | --- |
| C=CCOC(=O)C1=C[C@H](C(C)(C)C)[C@@H](CCCO)[C@H](OCC)O1 | active: 69.4% |
| CCN(CC)C(=O)c1cccc(-c2csc(C(C)(O)c3ccncc3)n2)c1 (stereo not drawn) | inactive: 1% |
| Cc1[nH]nc(-c2ccc(OCc3cnn(-c4ccccc4)c3)cc2O)c1Oc1ccccc1F | inconclusive |
| CCN1C(=O)CC(Sc2ccccc2N)C1=O (stereo not drawn) | inconclusive |
| COc1cc(NC(=O)c2cccs2)c(OC)cc1NC(=O)CCC(=O)Nc1cccc2ncccc12 | active: 60.3% |
| Cc1nn(C(=O)c2cccnc2)c(C)c1Sc1ccc(Br)cc1 | active: 58.7% |
| CC(C)CCNC(=O)C1CC(c2ccccc2C(F)(F)F)=NO1 (stereo not drawn) | inactive: -6.3% |
| CCN(CC)Cc1cc(Nc2c3ccccc3nc3c4ccccc4n(C)c23)cc(CN(CC)CC)c1O | active: 100% |
| CCOc1ccc(CCNC(=O)C(C)N2C(=O)CC(C)(C)Sc3ccccc32)cc1 (stereo not drawn) | inconclusive |
| Cn1c(=O)n(C)c2cc(N3CCOCC3)c(NC(=O)c3cccc(Cl)c3)cc21 | inactive: -7.2% |
| CC1(C(=O)CSc2nc3ccccc3s2)CCC(=O)O1 (stereo not drawn) | inactive: -2.3% |
| Cc1cc(=O)n2[nH]c(-c3cccc(Cl)c3)cc2n1 | inconclusive |
| COC(=O)c1ccc(NC(=O)CN2CCN(c3ccccn3)CC2)cc1 | inactive: -1.2% |
| O=C(NCCO)c1cc(-c2cc(C(=O)NCCO)c3ccccc3n2)nc2ccccc12 | inconclusive |
| COc1ccc(NC(=O)N2CCCC(c3nc(-c4ccc(OC)cc4)no3)C2)cc1 (stereo not drawn) | inconclusive |
| O=C(c1cc2ccccc2o1)N(C1CC1)C1(C(=O)Nc2ccccc2)CCCC1 | inactive: -0.9% |
| COc1ccc(NC(=O)CCNS(=O)(=O)c2cccc3nonc23)cc1Cl | inconclusive |
| O=C(CN(C(=O)c1ccccc1Cl)N1C(=O)C2C3C=CC(C3)C2C1=O)c1cccs1 (stereo not drawn) | inconclusive |
| c1cncc(-c2noc(C34CC5CC(CC(C5)C3)C4)n2)c1 | inactive: -2.2% |
| O=C(N[C@H](CO)c1ccccc1)[C@H]1O[C@@H](n2ccc(=O)[nH]c2=O)[C@H](O)[C@@H]1O | inactive: 1.1% |
| CCOC(=O)c1ccc(NC(=O)COc2ccc(CNC3CCCCC3)cc2OC)cc1 | active: 59.9% |
| c1ccc(COc2ccc(-c3cc4nc(NCCCn5ccnc5)ccn4n3)cc2)cc1 | active: 72.1% |
| CCc1ccccc1NC(=O)C1CCN(C(=O)N2CCOc3ccccc32)CC1 | inactive: 5.4% |
| COc1cc(C(=O)Nc2ccc(S(=O)(=O)N3CCOCC3)cc2)c([N+](=O)[O-])cc1OC | active: 74.3% |

| Structure (SMILES) | inhibition |
| --- | --- |
| COc1cc(/C=C/c2nc(-c3ccccc3O)n[nH]2)cc(OC)c1OC | active: 98.1% |
| O=S(=O)(NNc1nccc(C(F)(F)F)n1)c1cccc(Cl)c1Cl | active: 82.9% |
| CCCN1CCC(=NNC(=O)CSc2cc(C)c(Br)cc2C)CC1 | inconclusive |
| COc1ccc2cc(C3(C)NC(=O)N(CC(=O)Nc4c(C)n(C)n(-c5ccccc5)c4=O)C3=O)ccc2c1 (stereo not drawn) | inconclusive |
| O=C(CCNS(=O)(=O)c1cccs1)N1CCN(c2cccc(Cl)c2)CC1 | inconclusive |
| COc1ccccc1-n1c(SCC(=O)N2CCCCC2)nc(O)c(Cc2ccccc2)c1=O | inconclusive |
| COc1ccc(CC(=O)N/N=C/c2cc([N+](=O)[O-])cc(Br)c2O)cc1 | inconclusive |
| Clc1ccc(-c2cn3c(n2)-c2ccccc2C3)cc1Cl | inconclusive |
| CC(C)(C)c1ccc(-n2ncc3c2CCCC3NC(=O)c2cnccn2)cc1 (stereo not drawn) | inconclusive |
| CC(C)(C)C(=O)Nc1ccccc1N1CCN(c2ccc(F)cc2)CC1 | inconclusive |
| O=C1CS(=O)CN1c1ccc(Oc2ccccc2)cc1 (stereo not drawn) | inconclusive |
| Cc1ccc(-n2c(=O)c3ccccc3n(CC(=O)NCc3ccco3)c2=O)cc1 | inconclusive |
| COC(CNC(=O)CN1CCN(Cc2ccccc2F)C1=O)OC | inconclusive |
| CC1(C)Cc2c(cnn2-c2ccc(F)cc2)C(NC(=O)c2ccoc2)C1 (stereo not drawn) | inconclusive |
| Cc1csc(NC(=O)c2cn3ccccc3n2)n1 | inactive: -0.8% |
| FC(F)(F)c1ccccc1NC(=S)N1CCCC1 | inactive: -3.1% |
| COc1ccccc1OCC(=O)NNc1c2ccccc2nc2ccccc12 | active: 58.6% |
| N#CC(C#N)=C1C=CC=CN1/C(=C\c1ccccc1Cl)C(=O)c1ccccc1 | active: 67.7% |
| N#Cc1c(-c2cccc(F)c2)cc(-c2ccccc2)nc1Br | inactive: -0.2% |
| Cc1cc(C)c(OCC(=O)Nc2ccccc2N2CCCCC2)c(C)c1 | inconclusive |
| CCn1cc(CCC(=O)NCc2ccccc2OC)c2ccccc21 | inconclusive |
| Cn1c(C(C(=O)NCC2CCCO2)N(CCc2ccccc2)C(=O)Cn2nnc3ccccc32)nc2ccccc21 (stereo not drawn) | inconclusive |
| CC(C)NS(=O)(=O)c1cccc2nsnc12 | inconclusive |
| O=C(Nc1cccc([N+](=O)[O-])c1)c1cnccn1 | inconclusive |

By substructure: the entries above containing a tert-butyl group

| Structure (SMILES) | inhibition |
| --- | --- |
| C=CCOC(=O)C1=C[C@H](C(C)(C)C)[C@@H](CCCO)[C@H](OCC)O1 | active: 69.4% |
| CC(C)(C)c1ccc(-n2ncc3c2CCCC3NC(=O)c2cnccn2)cc1 (stereo not drawn) | inconclusive |
| CC(C)(C)C(=O)Nc1ccccc1N1CCN(c2ccc(F)cc2)CC1 | inconclusive |

Reference: PubChem BioAssay AID651702 (NMMLSC, 2012)
